According to patent US20200155607A1, “Enriched Cellular Compositions and Therapeutic Use” (Abraham J and Phyllis Katz Cord Blood Foundation, priority 2017, published 2020):
At least one compound was matched to its structure with a doubt left.

Tested on: UCB monocytes
Assay: Nitrite (NO) production by UCB monocytes in response to LPS and P. aeruginosa (Greiss assay)
Type: cell-based
Conditions: UCB monocytes and PRP, with or without DFO 24 hrs; FIG. 9A

## CC(=O)N(O)CCCCCNC(=O)CCC(=O)N(O)CCCCCNC(=O)CCC(=O)N(O)CCCCCN [DFO, deferoxamine]
  impact of DFO incubation on NO responses to LPS or P. aeruginosa: does not seem to impact NO responses
